Source: the supplement of paper PMC10849652
The other results are listed elsewhere or left out.

Amino acid sequences for entries named in this document (tags omitted). A change or cut given only in a name is not applied to a line headed by its entry.
UniProt Q7Z3Z4: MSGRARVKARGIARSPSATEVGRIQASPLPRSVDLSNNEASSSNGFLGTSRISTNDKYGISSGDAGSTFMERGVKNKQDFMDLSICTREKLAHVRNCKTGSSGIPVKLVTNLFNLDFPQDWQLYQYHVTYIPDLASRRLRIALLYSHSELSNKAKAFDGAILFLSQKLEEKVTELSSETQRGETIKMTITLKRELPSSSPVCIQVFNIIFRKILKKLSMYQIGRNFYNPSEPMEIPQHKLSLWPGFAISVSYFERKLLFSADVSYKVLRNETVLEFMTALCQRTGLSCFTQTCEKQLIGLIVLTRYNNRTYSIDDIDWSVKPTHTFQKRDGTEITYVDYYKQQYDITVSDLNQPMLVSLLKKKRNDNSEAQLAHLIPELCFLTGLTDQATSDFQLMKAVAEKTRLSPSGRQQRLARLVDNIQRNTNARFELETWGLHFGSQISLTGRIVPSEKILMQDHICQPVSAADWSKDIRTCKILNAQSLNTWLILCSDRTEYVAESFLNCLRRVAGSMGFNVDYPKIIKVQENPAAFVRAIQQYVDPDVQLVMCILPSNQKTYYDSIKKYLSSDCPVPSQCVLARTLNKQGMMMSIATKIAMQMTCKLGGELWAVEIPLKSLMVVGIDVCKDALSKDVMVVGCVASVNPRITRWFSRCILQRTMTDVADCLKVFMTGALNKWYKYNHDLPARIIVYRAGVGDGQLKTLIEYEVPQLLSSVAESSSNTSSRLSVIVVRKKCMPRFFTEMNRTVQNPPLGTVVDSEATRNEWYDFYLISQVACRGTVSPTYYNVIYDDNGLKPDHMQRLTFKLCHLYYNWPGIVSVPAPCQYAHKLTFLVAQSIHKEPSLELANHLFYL
UniProt Q9UPP1: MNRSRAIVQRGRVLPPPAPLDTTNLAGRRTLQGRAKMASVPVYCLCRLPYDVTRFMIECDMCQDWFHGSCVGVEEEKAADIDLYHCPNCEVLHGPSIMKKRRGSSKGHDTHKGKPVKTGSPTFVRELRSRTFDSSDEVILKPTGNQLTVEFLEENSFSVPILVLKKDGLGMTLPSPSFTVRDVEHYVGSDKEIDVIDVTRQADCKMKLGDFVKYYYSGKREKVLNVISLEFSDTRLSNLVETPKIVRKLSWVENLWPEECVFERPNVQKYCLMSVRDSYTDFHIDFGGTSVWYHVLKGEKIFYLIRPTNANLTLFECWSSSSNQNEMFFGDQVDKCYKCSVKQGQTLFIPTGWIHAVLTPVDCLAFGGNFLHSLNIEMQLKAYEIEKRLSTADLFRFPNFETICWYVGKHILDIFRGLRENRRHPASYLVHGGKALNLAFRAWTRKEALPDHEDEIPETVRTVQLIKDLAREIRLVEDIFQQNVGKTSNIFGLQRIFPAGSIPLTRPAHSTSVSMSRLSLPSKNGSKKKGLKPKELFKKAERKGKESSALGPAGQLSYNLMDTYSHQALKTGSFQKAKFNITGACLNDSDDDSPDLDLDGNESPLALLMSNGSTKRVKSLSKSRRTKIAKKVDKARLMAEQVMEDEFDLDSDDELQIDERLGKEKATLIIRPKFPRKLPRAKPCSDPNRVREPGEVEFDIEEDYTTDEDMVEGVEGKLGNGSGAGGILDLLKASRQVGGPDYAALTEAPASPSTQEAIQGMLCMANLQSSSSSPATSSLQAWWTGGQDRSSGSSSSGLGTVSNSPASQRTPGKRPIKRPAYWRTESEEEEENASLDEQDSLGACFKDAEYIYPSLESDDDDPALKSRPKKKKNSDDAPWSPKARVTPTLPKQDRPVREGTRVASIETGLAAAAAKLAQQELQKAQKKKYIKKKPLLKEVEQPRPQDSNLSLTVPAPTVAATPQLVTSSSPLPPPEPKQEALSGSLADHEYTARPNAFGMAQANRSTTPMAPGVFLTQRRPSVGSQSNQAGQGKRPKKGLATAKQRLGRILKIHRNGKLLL
UniProt P78337, whole entry, looked up: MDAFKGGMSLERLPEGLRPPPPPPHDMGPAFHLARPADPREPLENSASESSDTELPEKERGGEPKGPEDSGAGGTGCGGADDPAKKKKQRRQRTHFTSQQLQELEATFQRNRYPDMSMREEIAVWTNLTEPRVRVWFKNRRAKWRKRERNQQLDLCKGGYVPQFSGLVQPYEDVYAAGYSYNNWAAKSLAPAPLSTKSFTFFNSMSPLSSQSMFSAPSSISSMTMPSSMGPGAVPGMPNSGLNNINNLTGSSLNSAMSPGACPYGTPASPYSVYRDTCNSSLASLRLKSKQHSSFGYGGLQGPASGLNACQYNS
UniProt P37287: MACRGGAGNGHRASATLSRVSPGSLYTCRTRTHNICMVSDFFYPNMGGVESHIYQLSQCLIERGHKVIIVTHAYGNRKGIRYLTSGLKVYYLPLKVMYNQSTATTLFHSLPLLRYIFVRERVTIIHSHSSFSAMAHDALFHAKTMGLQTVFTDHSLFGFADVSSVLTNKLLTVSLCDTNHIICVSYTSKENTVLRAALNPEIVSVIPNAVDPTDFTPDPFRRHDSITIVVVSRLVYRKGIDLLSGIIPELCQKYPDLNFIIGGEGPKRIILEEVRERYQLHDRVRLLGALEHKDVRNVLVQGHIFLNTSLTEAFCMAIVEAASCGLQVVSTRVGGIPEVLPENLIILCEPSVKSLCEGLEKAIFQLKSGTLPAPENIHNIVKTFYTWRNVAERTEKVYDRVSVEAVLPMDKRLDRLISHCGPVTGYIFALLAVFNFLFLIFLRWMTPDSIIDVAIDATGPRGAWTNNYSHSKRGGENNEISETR
UniProt Q8IUZ5: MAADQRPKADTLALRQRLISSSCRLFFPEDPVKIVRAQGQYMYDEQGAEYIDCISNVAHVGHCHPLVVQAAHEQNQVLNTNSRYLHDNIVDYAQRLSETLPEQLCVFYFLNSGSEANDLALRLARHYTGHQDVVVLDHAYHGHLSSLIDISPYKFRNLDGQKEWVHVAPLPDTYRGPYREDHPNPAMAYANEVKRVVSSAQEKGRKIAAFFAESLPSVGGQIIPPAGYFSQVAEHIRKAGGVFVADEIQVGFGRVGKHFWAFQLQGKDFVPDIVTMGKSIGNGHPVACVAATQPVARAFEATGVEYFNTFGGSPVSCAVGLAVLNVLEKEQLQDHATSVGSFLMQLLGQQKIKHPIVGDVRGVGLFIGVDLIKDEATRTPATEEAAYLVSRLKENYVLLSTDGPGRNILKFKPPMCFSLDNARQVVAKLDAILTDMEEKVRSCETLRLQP
UniProt Q4KWH8: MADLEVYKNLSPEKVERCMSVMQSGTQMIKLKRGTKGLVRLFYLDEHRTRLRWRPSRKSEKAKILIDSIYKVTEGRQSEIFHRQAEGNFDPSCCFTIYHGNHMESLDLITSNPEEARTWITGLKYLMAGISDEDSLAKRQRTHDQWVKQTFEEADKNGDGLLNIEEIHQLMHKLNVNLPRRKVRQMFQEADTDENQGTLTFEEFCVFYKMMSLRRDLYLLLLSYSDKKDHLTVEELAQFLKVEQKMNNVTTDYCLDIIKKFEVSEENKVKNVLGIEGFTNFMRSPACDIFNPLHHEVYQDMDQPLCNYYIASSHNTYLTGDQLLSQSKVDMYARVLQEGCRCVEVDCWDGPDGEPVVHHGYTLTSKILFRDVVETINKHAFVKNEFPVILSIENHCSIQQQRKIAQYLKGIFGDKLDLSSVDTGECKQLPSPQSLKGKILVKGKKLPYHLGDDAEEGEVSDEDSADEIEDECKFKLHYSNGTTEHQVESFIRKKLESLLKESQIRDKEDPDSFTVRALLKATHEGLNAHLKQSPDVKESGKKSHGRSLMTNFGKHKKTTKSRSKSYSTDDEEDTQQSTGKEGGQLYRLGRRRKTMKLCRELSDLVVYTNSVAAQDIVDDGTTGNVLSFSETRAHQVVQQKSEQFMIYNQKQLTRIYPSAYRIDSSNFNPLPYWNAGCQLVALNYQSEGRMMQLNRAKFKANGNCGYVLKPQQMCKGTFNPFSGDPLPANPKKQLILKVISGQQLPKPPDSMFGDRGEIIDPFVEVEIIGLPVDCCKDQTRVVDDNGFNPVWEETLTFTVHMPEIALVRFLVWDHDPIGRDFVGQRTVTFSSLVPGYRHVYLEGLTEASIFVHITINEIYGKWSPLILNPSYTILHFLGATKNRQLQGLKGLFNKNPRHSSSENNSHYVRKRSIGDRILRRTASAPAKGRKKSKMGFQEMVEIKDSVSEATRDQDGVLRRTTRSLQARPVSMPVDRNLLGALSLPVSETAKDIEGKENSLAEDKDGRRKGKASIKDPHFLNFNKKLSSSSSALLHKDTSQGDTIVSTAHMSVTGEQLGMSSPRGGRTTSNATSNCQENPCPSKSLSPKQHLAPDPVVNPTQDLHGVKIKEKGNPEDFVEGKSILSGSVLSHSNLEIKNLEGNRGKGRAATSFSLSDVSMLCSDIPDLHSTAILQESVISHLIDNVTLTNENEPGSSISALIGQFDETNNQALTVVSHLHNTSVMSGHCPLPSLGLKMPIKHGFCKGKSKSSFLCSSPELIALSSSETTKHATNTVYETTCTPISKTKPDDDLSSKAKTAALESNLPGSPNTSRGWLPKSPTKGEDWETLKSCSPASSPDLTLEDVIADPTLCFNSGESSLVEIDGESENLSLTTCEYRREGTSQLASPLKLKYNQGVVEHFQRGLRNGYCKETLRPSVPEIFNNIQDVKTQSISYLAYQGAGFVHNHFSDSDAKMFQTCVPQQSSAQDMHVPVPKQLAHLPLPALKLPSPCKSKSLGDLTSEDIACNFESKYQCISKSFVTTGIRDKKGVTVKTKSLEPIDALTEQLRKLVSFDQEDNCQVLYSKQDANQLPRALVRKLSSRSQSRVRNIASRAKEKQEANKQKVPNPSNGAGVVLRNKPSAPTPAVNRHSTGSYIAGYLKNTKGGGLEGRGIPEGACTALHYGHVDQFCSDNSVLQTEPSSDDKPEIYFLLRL
UniProt Q6ZUJ8: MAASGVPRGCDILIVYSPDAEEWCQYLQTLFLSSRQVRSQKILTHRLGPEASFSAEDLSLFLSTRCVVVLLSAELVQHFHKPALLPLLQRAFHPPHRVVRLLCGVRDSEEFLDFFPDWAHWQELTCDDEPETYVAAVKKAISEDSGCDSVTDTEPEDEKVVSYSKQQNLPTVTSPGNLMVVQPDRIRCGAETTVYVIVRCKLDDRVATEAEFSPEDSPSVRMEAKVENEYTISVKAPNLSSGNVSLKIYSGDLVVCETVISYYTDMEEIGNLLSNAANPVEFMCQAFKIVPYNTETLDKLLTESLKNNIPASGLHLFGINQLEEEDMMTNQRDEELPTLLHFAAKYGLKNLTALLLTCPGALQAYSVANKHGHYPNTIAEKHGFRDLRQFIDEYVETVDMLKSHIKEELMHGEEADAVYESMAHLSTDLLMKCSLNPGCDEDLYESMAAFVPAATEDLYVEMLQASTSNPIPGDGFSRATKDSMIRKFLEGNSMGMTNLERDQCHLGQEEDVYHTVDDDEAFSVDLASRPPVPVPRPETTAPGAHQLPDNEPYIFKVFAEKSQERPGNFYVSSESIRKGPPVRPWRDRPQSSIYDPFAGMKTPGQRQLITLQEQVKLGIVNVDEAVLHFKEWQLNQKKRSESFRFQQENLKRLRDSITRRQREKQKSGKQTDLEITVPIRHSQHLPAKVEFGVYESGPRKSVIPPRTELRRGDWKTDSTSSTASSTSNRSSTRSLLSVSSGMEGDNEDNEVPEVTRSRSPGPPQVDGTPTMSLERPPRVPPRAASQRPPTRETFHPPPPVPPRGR
UniProt Q9Y2B2: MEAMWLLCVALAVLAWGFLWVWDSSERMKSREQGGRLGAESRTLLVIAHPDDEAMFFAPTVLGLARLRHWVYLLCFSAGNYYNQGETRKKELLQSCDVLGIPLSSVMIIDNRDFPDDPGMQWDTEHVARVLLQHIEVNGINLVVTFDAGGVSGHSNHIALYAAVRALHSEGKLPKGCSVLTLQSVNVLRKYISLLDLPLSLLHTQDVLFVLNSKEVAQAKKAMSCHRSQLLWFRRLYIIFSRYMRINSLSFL
UniProt Q53GA4: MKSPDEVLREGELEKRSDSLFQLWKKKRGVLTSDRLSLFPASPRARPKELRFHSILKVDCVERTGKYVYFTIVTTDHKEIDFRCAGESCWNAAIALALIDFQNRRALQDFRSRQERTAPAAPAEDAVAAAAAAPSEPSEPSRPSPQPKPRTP
PIGBOS1, A0A0B4J2F0, UniProt A0A0B4J2F0, whole entry, looked up: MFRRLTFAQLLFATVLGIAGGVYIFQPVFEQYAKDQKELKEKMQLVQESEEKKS

Compound: Cc1cn(-c2cc(NC(=O)c3ccc(C)c(Nc4nccc(-c5cccnc5)n4)c3)cc(C(F)(F)F)c2)cn1 [nilotinib]
Experiment: log2 fold change, soluble protein after heating vs DMSO (PISA); higher = thermal stabilisation; K562 lysate, 10 uM; active = over 0.2 and 3.5 SD of the protein, either way, in both replicates (recomputed)
Summary of the method: (§1)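 K562 pellets were dounce-homogenised in PBS pH 7.4 with 1 mM MgCl2, and the crude extract at 1 mg/mL protein was treated with 10 μM compound for 30 min. Aliquots were heated for 3 min across 48°C-58°C, pooled, and brought to 0.5% NP-40 at 4°C; soluble protein was the supernatant after 21,000xg for 90 min. Soluble protein was quantified by TMTpro 16plex LC-MS/MS with channel sums equalised, and reported as log2 fold change in thermal stability against DMSO controls, with values from duplicates.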

log2 fold change, inactive:
PIGT, A0A1W2PP13 -0.238
PIWIL4 (UniProt Q7Z3Z4) 0.01
PHF8 (UniProt Q9UPP1) 0.165
PIK3R3 (UniProt Q92569) -0.09
PIEZO2 isoform 4 (UniProt Q9H5I5) 0.048
PHF19 (UniProt Q5T6S3) 0.001

Compound: Cc1nc(Nc2n[nH]c3c2CN(C(=O)N[C@H](CN(C)C)c2ccccc2)C3(C)C)c2sccc2n1
Experiment: as above
Summary of the method: as §1

log2 fold change, inactive:
PIGT, A0A1W2PP13 0.099
PIWIL4 (UniProt Q7Z3Z4) 0.005
PHF8 (UniProt Q9UPP1) -0.145
PIK3R3 (UniProt Q92569) 0.076
PIEZO2 isoform 4 (UniProt Q9H5I5) -0.024
PHF19 (UniProt Q5T6S3) 0.137

Compound: Cc1nc(Nc2ncc(C(=O)Nc3c(C)cccc3Cl)s2)cc(N2CCN(CCO)CC2)n1 [dasatinib]
Experiment: as above
Summary of the method: as §1

log2 fold change, inactive:
PITX1 (UniProt P78337) 0.058
PIDD1 (UniProt Q9HB75) -0.094
PHGDH, A0A286YFE1 0.086
PLEKHG2 (UniProt Q9H7P9) 0.094
PIGA (UniProt P37287) -0.03
PKP4 (UniProt Q99569) -0.138
PHYKPL (UniProt Q8IUZ5) -0.184
PGM1 isoform 2 (UniProt P36871) 0.087
PLD6 (UniProt Q8N2A8) 0.175
PLCH1 (UniProt Q4KWH8) -0.001
PIGN (UniProt O95427) -0.153
PIK3AP1 (UniProt Q6ZUJ8) -0.045
PIGL (UniProt Q9Y2B2) -0.067
PHLDA2 (UniProt Q53GA4) -0.093
PLAUR (UniProt Q03405) 0.149

Compound: Cc1ncc(-c2ccnc(Nc3ccc(S(C)(=O)=O)cc3)n2)n1C(C)C
Experiment: as above
Summary of the method: as §1

log2 fold change, inactive:
PIGT, A0A1W2PP13 0.089
PIWIL4 (UniProt Q7Z3Z4) -0.031
PHF8 (UniProt Q9UPP1) -0.005
PIK3R3 (UniProt Q92569) -0.159
PIEZO2 isoform 4 (UniProt Q9H5I5) 0.008
PHF19 (UniProt Q5T6S3) 0.039

Compound: Cn1cc(-c2ccc3c(c2)CCN3C(=O)Cc2cccc(C(F)(F)F)c2)c2c(N)ncnc21
Experiment: as above
Summary of the method: as §1

log2 fold change, inactive:
PITX1 (UniProt P78337) -0.254
PIDD1 (UniProt Q9HB75) 0.218
PHGDH, A0A286YFE1 0.258
PLEKHG2 (UniProt Q9H7P9) 0.176
PIGA (UniProt P37287) -0.018
PKP4 (UniProt Q99569) -0.099
PHYKPL (UniProt Q8IUZ5) -0.061
PGM1 isoform 2 (UniProt P36871) -0.152
PLD6 (UniProt Q8N2A8) 0.054
PLCH1 (UniProt Q4KWH8) 0.02
PIGN (UniProt O95427) -0.019
PIK3AP1 (UniProt Q6ZUJ8) 0.177
PIGL (UniProt Q9Y2B2) -0.075
PHLDA2 (UniProt Q53GA4) -0.302
PLAUR (UniProt Q03405) -0.509

Compound: Cn1cc(CNCC2CCN(c3ncc(C(=O)NO)cn3)CC2)c2ccccc21 [quisinostat]
Experiment: as above
Summary of the method: as §1

log2 fold change, inactive:
PIGQ (UniProt Q9BRB3) -0.012
PITX1 (UniProt P78337) -0.105
PIP5K1B isoform 2 (UniProt O14986) -0.192
PIGH (UniProt Q14442) 0.159
PKM (UniProt H3BTN5) 0.048
PHOSPHO2 (UniProt C9JD35) 0.073
PIGA (UniProt P37287) -0.073
PHF20 (UniProt Q9BVI0) 0.353
PHF8 (UniProt Q9UPP1) -0.085
PHLDB3 (UniProt Q6NSJ2) -0.233
PHYKPL (UniProt Q8IUZ5) 0.05
PIGBOS1, A0A0B4J2F0 0.137
PIGB (UniProt Q92521) -0.041
PIEZO2 isoform 4 (UniProt Q9H5I5) -0.091
PLEK (UniProt P08567) 0.072
PHF13 (UniProt Q86YI8) -0.399
PLCH1 (UniProt Q4KWH8) 0.054
PIGM (UniProt Q9H3S5) -0.021
PLEC isoform 3 (UniProt Q15149) -0.048
PHF19 (UniProt Q5T6S3) 0.077
PIK3AP1 (UniProt Q6ZUJ8) -0.029
PIGL (UniProt Q9Y2B2) 0.032
PHLDA2 (UniProt Q53GA4) -0.133
PIMREG (UniProt Q9BSJ6) -0.019
